According to patent US20250154171A1, “RAS INHIBITORS” (Revolution Medicines, Inc., priority 2023, published 2025):
Some entries share one result that the patent states for a list of compounds.

Sequences of proteins named here, by UniProt entry; tags and fusion partners are left off. A change or cut given only in a name is not applied to a line headed by its entry. Residues count along the entry.
UniProt P01116, 1-188 isoform P01116-2 G12V: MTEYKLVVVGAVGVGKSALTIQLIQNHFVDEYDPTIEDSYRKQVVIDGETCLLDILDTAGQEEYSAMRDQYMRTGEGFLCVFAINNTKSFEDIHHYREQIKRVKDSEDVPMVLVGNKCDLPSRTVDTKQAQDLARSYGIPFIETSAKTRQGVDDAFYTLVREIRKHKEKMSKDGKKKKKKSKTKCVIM
UniProt P62937, whole entry: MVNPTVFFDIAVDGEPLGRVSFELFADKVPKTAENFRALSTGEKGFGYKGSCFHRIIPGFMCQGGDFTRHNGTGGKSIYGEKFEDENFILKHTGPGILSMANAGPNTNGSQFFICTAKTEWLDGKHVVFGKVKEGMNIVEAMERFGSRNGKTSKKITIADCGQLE

Experiments:
[1] = target: K-RasG12V (Homo sapiens, UniProt P01116+P62937, G12V); experiment: Disruption of BRAF RBD interaction with K-Ras (TR-FRET / MOA assay), K-RasG12V; format: biochemical; conditions: TR-FRET with cyclophilin A and GST-BRAF RBD, read-out: IC50 with respect to K-RasG12V (disruption of BRAF RBD interaction)
[2] = test system: Capan-1 (K-Ras G12V); experiment: CellTiter-Glo cell viability assay, Capan-1; format: cell-based, human; conditions: 5-day treatment, Capan-1 versus A375

Structure (SMILES)	IC50 [1]	decrease in cell viability with respect to KRAS G12V (Capan-1) versus wild-type KRAS (A375) [2]
CO[C@@H](C)c1ncc(N2CCCN(C3CC3)CC2)cc1-c1c2c3cc(ccc3n1CCOC1CCOCC1)-c1csc(n1)[C@@H](OCC(F)F)[C@H](NC(=O)[C@H]1[C@H](C)[C@@H]1C)C(=O)N1CCC[C@H](N1)C(=O)OCC(C)(C)C2 (racemic) [Example A765]	< 1 µM	greater decrease in cell viability
CO[C@@H](C)c1ncc(N2CCN(C3CC3)CC2)cc1-c1c2c3cc(ccc3n1CCOC1CCOCC1)-c1csc(n1)[C@@H](N1CCOCC1)[C@H](NC(=O)[C@H]1[C@H](C)[C@@H]1C)C(=O)N1CCC[C@H](N1)C(=O)OCC(C)(C)C2 (racemic) [Example A766]	< 1 µM	greater decrease in cell viability
CO[C@@H](C)c1ncc(N2CCN(C3CC3)CC2)cc1-c1c2c3cc(ccc3n1CCOC1CCOCC1)-c1csc(n1)[C@@H](N1CCOCC1)[C@H](NC(=O)[C@@H]1CCO1)C(=O)N1CCC[C@H](N1)C(=O)OCC(C)(C)C2 (racemic) [Example A768]	< 1 µM	greater decrease in cell viability
CCO[C@@H]1c2nc(cs2)-c2ccc3c(c2)c(c(-c2cc(N4CCN(C5CC5)CC4)cnc2[C@H](C)OC)n3CCOC2CCOCC2)CC(C)(C)COC(=O)[C@@H]2CCCN(N2)C(=O)[C@H]1NC(=O)C1(C#N)CCC1 (racemic) [Example A769]	< 1 µM	greater decrease in cell viability
CCO[C@@H]1c2nc(cs2)-c2ccc3c(c2)c(c(-c2cc(N4CCN(C5CC5)CC4)cnc2[C@H](C)OC)n3CCOC2CCOCC2)CC(C)(C)COC(=O)[C@@H]2CCCN(N2)C(=O)[C@H]1NC(=O)C12CC(CO1)C2 (racemic) [Example A770]	< 1 µM	greater decrease in cell viability
CCO[C@@H]1c2coc(n2)-c2ccc3c(c2)c(c(-c2cc(N4CCN(C5COC5)CC4)cnc2[C@H](C)OC)n3CCOC2CCOCC2)CC(C)(C)COC(=O)[C@@H]2CCCN(N2)C(=O)[C@H]1NC(=O)[C@@H]1[C@@H](C)[C@H]1c1ccccn1 (racemic) [Example A771]	< 1 µM	greater decrease in cell viability
CCO[C@@H]1c2coc(n2)-c2ccc3c(c2)c(c(-c2cc(N4CCN(C5COC5)CC4)cnc2[C@H](C)OC)n3CCOC2CCOCC2)CC(C)(C)COC(=O)[C@@H]2CCCN(N2)C(=O)[C@H]1NC(=O)[C@@H]1[C@@H](C)[C@H]1c1cocn1 (racemic) [Example A772]	< 1 µM	greater decrease in cell viability
CO[C@@H](C)c1ncc(N2CCN(C3COC3)CC2)cc1-c1c2c3cc(ccc3n1CCOC1CCOCC1)-c1csc(n1)[C@@H](OCC(F)F)[C@H](NC(=O)[C@@H]1[C@@H](C)[C@H]1c1cocn1)C(=O)N1CCC[C@H](N1)C(=O)OCC(C)(C)C2 (racemic) [Example A773]	< 1 µM	greater decrease in cell viability
CCO[C@@H]1c2nc(cs2)-c2ccc3c(c2)c(c(-c2cc(N4CCN(C5COC5)CC4)cnc2[C@H](C)OC)n3CCOC2CCOCC2)CC(C)(C)COC(=O)[C@@H]2CCCN(N2)C(=O)[C@H]1NC(=O)[C@@H]1[C@@H](C)[C@H]1c1cocn1 (racemic) [Example A774]	< 1 µM	greater decrease in cell viability
CO[C@@H](C)c1ncc(N2CCN(C3CC3)CC2)cc1-c1c2c3cc(ccc3n1CCOC1CCOCC1)-c1csc(n1)[C@@H](OCC(F)F)[C@H](NC(=O)[C@@H]1[C@@H](C)[C@H]1c1ccccn1)C(=O)N1CCC[C@H](N1)C(=O)OCC(C)(C)C2 (racemic) [Example A775]	< 1 µM	greater decrease in cell viability
CCO[C@@H]1c2nc(cs2)-c2ccc3c(c2)c(c(-c2cc(N4CCN(C5CC5)CC4)cnc2[C@H](C)OC)n3CCOC2CCOCC2)CC(C)(C)COC(=O)[C@@H]2CCCN(N2)C(=O)[C@H]1NC(=O)[C@@H]1[C@@H](C)[C@H]1c1ccccn1 (racemic) [Example A776]	< 1 µM	greater decrease in cell viability
CCO[C@@H]1c2nc(cs2)-c2ccc3c(c2)c(c(-c2cc(N4CCN(C5CC5)CC4)cnc2[C@H](C)OC)n3CCOC2CCOCC2)CC(C)(C)COC(=O)[C@@H]2CCCN(N2)C(=O)[C@H]1NC(=O)[C@@H]1[C@@H](C)[C@H]1c1cocn1 (racemic) [Example A777]	< 1 µM	greater decrease in cell viability
CO[C@@H](C)c1ncc(N2CCN(C3CC3)CC2)cc1-c1c2c3cc(ccc3n1CCOC1CCOCC1)-c1csc(n1)[C@@H](OCC(F)F)[C@H](NC(=O)[C@@H]1[C@@H](C)[C@H]1c1cscn1)C(=O)N1CCC[C@H](N1)C(=O)OCC(C)(C)C2 (racemic) [Example A778]	< 1 µM	greater decrease in cell viability
CO[C@@H](C)c1ncc(N2CCN(C3CC3)CC2)cc1-c1c2c3cc(ccc3n1CCOC1CCOCC1)-c1csc(n1)[C@@H](OCC(F)F)[C@H](NC(=O)[C@@H]1[C@@H](C)[C@H]1c1cocn1)C(=O)N1CCC[C@H](N1)C(=O)OCC(C)(C)C2 (racemic) [Example A779]	< 1 µM	greater decrease in cell viability
CO[C@@H](C)c1ncc(N2CCN(C3COC3)CC2)cc1-c1c2c3cc(ccc3n1CCOC1CCOCC1)-c1csc(n1)[C@@H](OCC(F)F)[C@H](NC(=O)N1C[C@@H]3COCC[C@@H]31)C(=O)N1CCC[C@H](N1)C(=O)OCC(C)(C)C2 (racemic) [Example A780]	< 1 µM	greater decrease in cell viability
CO[C@@H](C)c1ncc(N2CCN(C3CC3)CC2)cc1-c1c2c3cc(ccc3n1CCOC1CC3(COC3)C1)-c1csc(n1)[C@@H](OCC(F)F)[C@H](NC(=O)[C@H]1[C@H](C)[C@@H]1C)C(=O)N1CCC[C@H](N1)C(=O)OCC(C)(C)C2 (racemic) [Example A781]	< 1 µM	greater decrease in cell viability
CCO[C@@H]1c2coc(n2)-c2ccc3c(c2)c(c(-c2cc(N4CCN(C5COC5)CC4)cnc2[C@H](C)OC)n3CCOC2CCOCC2)CC(C)(C)COC(=O)[C@@H]2CCCN(N2)C(=O)[C@H]1NC(=O)[C@H]1[C@H](C)[C@@H]1C (racemic) [Example A782]	< 1 µM	greater decrease in cell viability
CO[C@@H](C)c1ncc(N2CCN(C3CC3)CC2)cc1-c1c2c3cc(ccc3n1CCOC1CCOCC1)-c1csc(n1)[C@@H](OCC(F)F)[C@H](NC(=O)[C@@H]1[C@@H](C)[C@H]1c1ncccn1)C(=O)N1CCC[C@H](N1)C(=O)OCC(C)(C)C2 (racemic) [Example A783]	< 1 µM	greater decrease in cell viability
